Laboratory results published in patent publication US20040096878.
Construct, isoform or probe ends are uncertain for at least one entry. At least one result comes from cells or an extract, where the contact may be indirect.

Test system: HuB (Hel-N2)
Assay: pull-down
Details: mRNA enriched in RA-treated HuB mRNPs; SEQ 19 identical; protein in cells

“UUUUUUAUUUUCUGUAUUUUUU [Neuronal-cadherin 3'-UTR segment 1]”: binds.
